Here are results for 76 molecules from the supplement of paper PMC3682954.

“And” between values parts separate entries of the source, which are not always exact repeats. Identical values can stand only once. Counter-ions that a name gives are not always drawn. ± gives the standard deviation of the averaged measurements. The list shows a part of the results. Repeats are few or missing, and single values can be far off.

The assay deals with RAW 264.7. Put plainly: cell viability (MTT) relative to vehicle control; higher = more viable cells. The conditions noted are these: stimulus: HMGB1 5 ug/ml, 18 h.
Where [1] appears, read: compound concentration: 1 ug/ml.

As usually defined, the cell viability is a read-out of living cells in per cent, often relative to untreated cells. As for `CCCCCC(O)c1cccc(OCc2ccc3ccccc3n2)c1` (stereo unspecified), for the setting “compound concentration: 3 uM”, the cell viability worked out at 125%.
Same read-out and setting: in the case of `CC(C)(C)c1ccc(C(=O)CCCN2CCC(OC(c3ccccc3)c3ccccc3)CC2)cc1` [Ebastine] it was 106%.
Take `O=c1ccn([C@@H]2O[C@H](CO)[C@@H](O)[C@H]2O)c(=O)[nH]1` [Uridine;  1-beta-D-Ribofuranosyluracil]: the cell viability under setting [1] amounted to 97.4%.
Turning to `CC(C)n1c(/C=C/C(O)CC(O)CC(=O)O)c(-c2ccc(F)cc2)c2ccccc21` (stereo unspecified), the cell viability (compound concentration: 3 uM) worked out at 105%.
On the same count and under the same terms, in the case of `CC(C)n1c(/C=C/C(O)CC(O)CC(=O)O)c(-c2ccc(F)cc2)c2ccccc21` (stereo unspecified) [Fluvastatin] it was 127%; in that of `CC(C)n1c(/C=C/C(O)CC(O)CC(=O)O)c(-c2ccc(F)cc2)c2ccccc21` (stereo unspecified) [Fluvastatin sodium salt], 111%.
As to `O=c1ncc(F)c[nH]1` [5-fluoro-2-pyrimidone], for the setting “compound concentration: 3 uM”, the cell viability was determined as 99%.
As for `CC(=O)Oc1ccccc1C(=O)Oc1ccccc1C(=O)O` [Acetylsalicylsalicylic acid], the cell viability (compound concentration: 3 uM) turned out to be 86.1%.
Regarding `CNC(=O)c1c(I)c(C(=O)NCC(=O)Nc2c(I)c(C(=O)O)c(I)c(C(=O)NCCO)c2I)c(I)c(N(C)C(C)=O)c1I` [Ioxaglic acid], the cell viability (compound concentration: 3 uM) worked out at 95.8%.
Still for that read-out and setting: in the case of `CCCCNc1cc(C(=O)O)cc(S(N)(=O)=O)c1Oc1ccccc1` [Bumetanide] it was 101 ± 5.6%; in that of `CCCCNc1cc(C(=O)O)cc(S(N)(=O)=O)c1Oc1ccccc1`, 103%; in that of `Cc1c(C)c2c(c(C)c1O)CCC(C)(C(=O)O)O2` (stereo unspecified) [Trolox], 83.8%.
Turning to `CC[C@H](C)C(=O)O[C@H]1C[C@@H](C)C=C2C=C[C@H](C)[C@H](CC[C@@H]3C[C@@H](O)CC(=O)O3)[C@H]21` [Mevinolin; Lovastatin], under setting [1], the cell viability turned out to be 100%.
As for `CC[C@H](C)C(=O)O[C@H]1C[C@@H](C)C=C2C=C[C@H](C)[C@H](CC[C@@H]3C[C@@H](O)CC(=O)O3)[C@H]21` [Lovastatin], the cell viability (compound concentration: 3 uM) was 111 ± 14%.
The same measure, in the same setting: in the case of `CC[C@H](C)C(=O)O[C@H]1C[C@@H](C)C=C2C=C[C@H](C)[C@H](CC[C@@H]3C[C@@H](O)CC(=O)O3)[C@H]21` it was 118%.
The same measure, in the same setting: to `NC1CCN(O)C1=O` (racemic) belongs 105%.
With `CCOC(=O)[C@@H](N)Cc1ccccc1` [Phenylalanine ethyl ester hydrochloride], the cell viability under setting [1] came to 94.2%.
Turning to `Cn1ccnc1` [1-Methylimidazole], the cell viability (compound concentration: 3 uM) was found to be 111%.
Turning to `CCN(CC)CCOC(=O)c1ccc(N)cc1`, for the setting “compound concentration: 3 uM”, the cell viability came to 98.5%.
Still for that read-out and setting: to `CCN(CC)CCOC(=O)c1ccc(N)cc1` [Procaine hydrochloride] belongs 101 ± 8.1%; to `CC(=O)CCCCn1cnc2c1c(=O)n(C)c(=O)n2C`, 91.6%.
Take `O=C1C2OCC(O2)[C@@H]2[C@@H]1[C@@H]1c3ccccc3C=CN1[C@H]2C(=O)c1ccccc1` (stereo partly specified): the cell viability under setting [1] is 101%.
`COc1cc2oc(-c3ccccc3)cc(=O)c2cc1OC`: the cell viability under setting [1] was 85.7%.
For the molecule `CC(=O)O[C@H]1C[C@@]2(C)[C@@H](C[C@@H](O)[C@H]3[C@@]4(C)CC[C@@H](O)[C@@H](C)[C@@H]4CC[C@@]32C)/C1=C(\CCC=C(C)C)C(=O)O` [Fusidic acid sodium salt], the cell viability (compound concentration: 3 uM) was determined as 106%.
Regarding `CC(=O)O[C@H]1C[C@@]2(C)[C@@H](C[C@@H](O)[C@H]3[C@@]4(C)CC[C@@H](O)[C@@H](C)[C@@H]4CC[C@@]32C)/C1=C(\CCC=C(C)C)C(=O)O` [Fusidic acid sodium], the cell viability (compound concentration: 3 uM) came out at 106%.
The same measure, in the same setting: to `CC(=O)O[C@H]1C[C@@]2(C)[C@@H](C[C@@H](O)[C@H]3[C@@]4(C)CC[C@@H](O)[C@@H](C)[C@@H]4CC[C@@]32C)/C1=C(\CCC=C(C)C)C(=O)O` belongs 107%.
The same measure, in the same setting: in the case of `N#C/C(=C\c1ccc(O)c(O)c1)C(=O)NCCc1ccccc1` [Tyrphostin AG 698] it was 102%; in that of `O=c1[nH]c(=O)c2nc3ccccc3nc2[nH]1` [Alloxazine], 97%.
Take `O=c1cc(-c2ccccc2)[nH]c2nc(Cl)ccc12` [7-Chloro-4-hydroxy-2-phenyl-1,8-naphthyridine]: the cell viability (compound concentration: 3 uM) worked out at 98.4%.
Same read-out and setting: in the case of `CC(=O)N[C@@H](CS)C(=O)O` it was 108%; in that of `CC(=O)N[C@@H](CS)C(=O)O` [N-Acetyl-L-Cysteine], 112%.
Still for that read-out and setting: in the case of `CC(=O)N[C@@H](CS)C(=O)O` [Acetylcysteine] it was 105%; in that of `CN(C)CCn1nnnc1SCC1=C(C(=O)O)N2C(=O)[C@@H](NC(=O)Cc3csc(N)n3)[C@H]2SC1` [Cefotiam hydrochloride], 99.6%.
For the molecule `N[C@@H](CCCC(=O)O)C(=O)O` [L-2-aminoadipic acid], for the setting “compound concentration: 3 uM”, the cell viability stood at 112%.
Same read-out and setting: in the case of `CC(C)CCCC(C)N` (stereo unspecified) it was 108%.
With `COc1ccc(-c2oc3cc(OC)ccc3c(=O)c2O)cc1` [4',7-Dimethoxy-3-hydroxyflavone], under setting [1], the cell viability was found to be 112%.
Same read-out and setting: in the case of `O=c1cc(-c2ccccc2)oc2cc(O)c(O)c(O)c12` [Baicalein] it was 98.9%.
For `COc1cc(C2Oc3cc([C@H]4Oc5cc(O)cc(O)c5C(=O)[C@@H]4O)ccc3OC2CO)ccc1O` (stereo partly specified), where the note is “compound concentration: 3 uM”, the cell viability worked out at 104%.
Still for that read-out and setting: to `O=c1[nH]c2cc(C(F)(F)F)ccc2n1-c1cc(C(F)(F)F)ccc1O` belongs 103%; to `C[C@]12C[C@H](O)[C@H]3[C@@H](CCC4=CC(=O)CC[C@@]43C)[C@@H]1CC[C@@H]2C(=O)CO`, 106%; to `C[C@]12C[C@H](O)[C@H]3[C@@H](CCC4=CC(=O)CC[C@@]43C)[C@@H]1CC[C@@H]2C(=O)CO` [Corticosterone], 103 ± 9.5%.
Still for that read-out and setting: to `COC(=O)C1=C(C)NC(C)=C(C(=O)OC2CCCN(Cc3ccccc3)C2)C1c1cccc([N+](=O)[O-])c1` (stereo unspecified) belongs 95.3%; to `CCc1ccc2c(-c3cccc(Cl)c3)nc(=O)n(CC)c2n1`, 102%.
Turning to `O=C(CCCCCCC(=O)Nc1ccccc1)NO` [Vorinostat], the cell viability (compound concentration: 3 uM) is 38.5%.
Still for that read-out and setting: in the case of `CC(C)ON([C@@H](C(=O)NO)C(C)C)S(=O)(=O)c1ccc(-c2ccccc2)cc1` it was 99.2%; in that of `CC[C@H]1OC(=O)C[C@@H](O)[C@H](C)[C@@H](O[C@@H]2O[C@H](C)[C@@H](O[C@H]3C[C@@](C)(O)[C@@H](O)[C@H](C)O3)[C@H](N(C)C)[C@H]2O)[C@@H](CC=O)C[C@@H](C)C(=O)/C=C/C(C)=C/[C@@H]1CO[C@@H]1O[C@H](C)[C@@H](O)[C@@H](OC)[C@H]1OC` [Tylosin], 103 ± 5.2%; in that of `CC[C@H]1OC(=O)C[C@@H](O)[C@H](C)[C@@H](O[C@@H]2O[C@H](C)[C@@H](O[C@H]3C[C@@](C)(O)[C@@H](O)[C@H](C)O3)[C@H](N(C)C)[C@H]2O)[C@@H](CC=O)C[C@@H](C)C(=O)/C=C/C(C)=C/[C@@H]1CO[C@@H]1O[C@H](C)[C@@H](O)[C@@H](OC)[C@H]1OC`, 106%.
On the same count and under the same terms, in the case of `COC(=O)C1=C(C)NC(C)=C([N+](=O)[O-])C1c1ccccc1C(F)(F)F` (racemic) it was 93%; in that of `Oc1ccc(Cn2cc[nH]c2=S)cc1` [1-(4-Hydroxybenzyl)imidazole-2-thiol], 102%; in that of `CCN(CC)CCOc1ccc2c(c1)C(=O)c1cc(OCCN(CC)CC)ccc1-2`, 105%.
Regarding `c1ccc(-c2ccccn2)nc1` [2,2'-Bipyridyl], the cell viability (compound concentration: 3 uM) is 99%.
As to `COc1ccccc1N1CCN(CCN(C(=O)c2ccc(F)cc2)c2ccccn2)CC1` [p-MPPF dihydrochloride], the cell viability (compound concentration: 3 uM) came out at 114%.
Same read-out and setting: to `CC1(C)O[C@@H]2C[C@H]3[C@@H]4CCC5=CC(=O)C=C[C@]5(C)[C@H]4[C@@H](O)C[C@]3(C)[C@]2(C(=O)CO)O1` belongs 115%.
Same read-out and setting: in the case of `Nc1ccc2cn[nH]c2c1` it was 95.4%; in that of `C/C(=C(\CCOP(=O)(O)O)SC(=O)c1ccccc1)N(C=O)Cc1cnc(C)nc1N` [Benfotiamine], 109%; in that of `C/C(=C(\CCOP(=O)(O)O)SC(=O)c1ccccc1)N(C=O)Cc1cnc(C)nc1N`, 111%.
Still for that read-out and setting: in the case of `CN(Cc1cnc2nc(N)nc(N)c2n1)c1ccc(C(=O)NC(CCC(=O)O)C(=O)O)cc1` (racemic) it was 92.8 ± 12%; in that of `C=C[C@@]1(C)CC(=O)[C@]2(O)[C@@]3(C)[C@@H](O)CCC(C)(C)[C@@H]3[C@H](O)[C@H](OC(C)=O)[C@@]2(C)O1`, 98.7%.
Consider `C=C[C@@]1(C)CC(=O)[C@]2(O)[C@@]3(C)[C@@H](O)CCC(C)(C)[C@@H]3[C@H](O)[C@H](OC(C)=O)[C@@]2(C)O1` [Forskolin], for which the cell viability (compound concentration: 3 uM) was found to be 105%.
Still for that read-out and setting: in the case of `CCN(CC)C(=S)SSC(=S)N(CC)CC` it was 96.7%.
The same measure, in the same setting: in the case of `CCN(CC)C(=S)SSC(=S)N(CC)CC` [Disulfiram] it was 92.5 ± 10%.
Consider `O=c1cc(-c2ccccc2)oc2cc(O)cc(O)c12` [Chrysin], for which the cell viability under setting [1] is 98.7%.
The same measure, in the same setting: to `Nc1ncnc2c1ncn2[C@@H]1O[C@H](COP(=O)(O)OP(=O)(O)O)[C@@H](O)[C@H]1O` [Adenosine-5'-diphosphate, disodium salt hydrate] belongs 92.5%; to `Nc1ncnc2c1ncn2[C@@H]1O[C@H](COP(=O)(O)OP(=O)(O)O)[C@@H](O)[C@H]1O` [Adenosine 5'-diphosphate, monosodium salt dihydrate], 96.1%.
Regarding `NC[C@H]1CC[C@H](C(=O)Oc2ccc(CCC(=O)O)cc2)CC1`, the cell viability (compound concentration: 3 uM) came out at 97.7%.
The same measure, in the same setting: in the case of `Nc1c2c(nc3ccccc13)CCCC2` [9-Amino-1,2,3,4-tetrahydroacridine hydrochloride] it was 96.7%; in that of `Nc1c2c(nc3ccccc13)CCCC2`, 97.3% and 97.8%.
The same measure, in the same setting: to `Nc1c2c(nc3ccccc13)CCCC2` [Tacrine] belongs 104%.
In the case of `O=C1CN(/N=C/c2ccc([N+](=O)[O-])o2)C(=O)N1` [Nitrofurantoin], the cell viability (compound concentration: 3 uM) came out at 94.3%.
Still for that read-out and setting: to `O=C1CN(/N=C/c2ccc([N+](=O)[O-])o2)C(=O)N1` belongs 102%.
Still for that read-out and setting: in the case of `CS(=O)(=O)c1ccc(-c2cc(Br)sc2-c2ccc(F)cc2)cc1` it was 102%; in that of `NC(N)=NC(=O)c1nc(Cl)c(N2CCCCCC2)nc1N` [5-(N,N-hexamethylene)amiloride], 97.7%.
The same measure, in the same setting: in the case of `CC1=C(CC(=O)O)c2cc(F)ccc2/C1=C\c1ccc(S(C)(=O)=O)cc1` [Sulindac sulfone] it was 140%; in that of `S=c1ccss1`, 135%.
For `Cc1ccccc1OCC(O)CO` (stereo unspecified), the cell viability (compound concentration: 3 uM) is 114%.
On the same count and under the same terms, to `Cc1ccccc1OCC(O)CO` (stereo unspecified) [Mephenesin] belongs 95%.
